No constants are given. Whether binding was seen depends on the method and setting. In cells and extracts the contact can be indirect. These calls come from enrichment with a bait or labelling near it, and not all partners need be listed.
B1: PPP5c (enzyme, UniProt Q60676 1-499)
chain: MAMAEGERTECAETPRDEPPADGTLKRAEELKTQANDYFKAKDYENAIKFYSQAIELNPGNAIYYGNRSLAYLRTECYGYALGDATRAIELDKKYIKGYYRRAASNMALGKFRAALRDYETVVKVKPNDKDAKMKYQECSKIVKQKAFERAIAGDEHRRSVVDSLDIESMTIEDEYSGPKLEDGKVTITFMKDLMQWYKDQKKLHRKCAYQILVQVKEVLCKLSTLVETTLKETEKITVCGDTHGQFYDLLNIFELNGLPSETNPYIFNGDFVDRGSFSVEVILTLFGFKLLYPDHFHLLRGNHETDNMNQIYGFEGEVKAKYTAQMYELFSEVFEWLPLAQCINGKVLIMHGGLFSEDGVTLDDIRKIERNRQPPDSGPMCDLLWSDPQPQNGRSVSKRGVSCQFGPDVTKAFLEENQLDYIIRSHEVKAEGYEVAHGGRCVTVFSAPNYCDQMGNKASYIHLQGSDLRPQFHQFTAVPHPNVKPMAYANTLLQLGMM
B2: NRIP1 (protein, UniProt Q8CBD1 1-1161)
chain: MTHGEELGSDVHQDSIVLTYLEGLLMHQAAGGSGTAINKKSAGHKEEDQNFNLSGSAFPSCQSNGPTVSTQTYQGSGMLHLKKARLLQSSEDWNAAKRKRLSDSIVNLNVKKEALLAGMVDSVPKGKQDSTLLASLLQSFSSRLQTVALSQQIRQSLKEQGYALSHESLKVEKDLRCYGVASSHLKTLLKKSKTKDQKSGPTLPDVTPNLIRDSFVESSHPAVGQSGTKVMSEPLSCAARLQAVASMVEKRASPAASPKPSVACSQLALLLSSEAHLQQYSREHALKTQNAHQVASERLAAMARLQENGQKDVGSSQLSKGVSGHLNGQARALPASKLVANKNNAATFQSPMGVVPSSPKNTSYKNSLERNNLKQAANNSLLLHLLKSQTIPTPMNGHSQNERASSFESSTPTTIDEYSDNNPSFTDDSSGDESSYSNCVPIDLSCKHRIEKPEAERPVSLENLTQSLLNTWDPKIPGVDIKEDQDTSTNSKLNSHQKVTLLQLLLGHKSEETVERNASPQDIHSDGTKFSPQNYTRTSVIESPSTNRTTPVSTPPLYTASQAESPINLSQHSLVIKWNSPPYACSTPASKLTNTAPSHLMDLTKGKESQAEKPAPSEGAQNSATFSASKLLQNLAQCGLQSSGPGEEQRPCKQLLSGNPDKPLGLIDRLNSPLLSNKTNAAEESKAFSSQPAGPEPGLPGCEIENLLERRTVLQLLLGNSSKGKNEKKEKTPARDEAPQEHSERAANEQILMVKIKSEPCDDFQTHNTNLPLNHDAKSAPFLGVTPAIHRSTAALPVSEDFKSEPASPQDFSFSKNGLLSRLLRQNQESYPADEQDKSHRNSELPTLESKNICMVPKKRKLYTEPLENPFKKMKNTAVDTANHHSGPEVLYGSLLHQEELKFSRNELDYKYPAGHSSASDGDHRSWARESKSFNVLKQLLLSENCVRDLSPHRSDSVPDTKKKGHKNNAPGSKPEFGISSLNGLMYSSPQPGSCVTDHRTFSYPGMVKTPLSPPFPEHLGCVGSRPEPGLLNGCSVPGEKGPIKWVIADMDKNEYEKDSPRLTKTNPILYYMLQKGGGNSVTTQETQDKDIWREPASAESLSQVTVKEELLPAAETKASFFNLRSPYNSHMGNNASRPHSTNGEVYGLLGNALTIKKESE
B3: Grainyhead-like (GRHL)1 (protein, UniProt Q921D9 1-618)
chain: MTQEYDNKRPVLVLQNEALYPQRRSYTSEDEAWKSFLENPLTAATKAMMSINGDEDSAAALGLLYDYYKVPRERRSSAVKPEGEHPEPEHSKRNSIPNVTEQPLISAGENRVQVLKNVPFNIVLPHSNQLGIDKRGHLTAPDTTVTVSIATMPTHSIKTEIQPHGFAVGIPPAVYHSEPTERVVVFDRSLSTDQFSSGTQPPNAQRRTPDSTFSETFKEGVQEVFFPSELSLRMPGMNSEDYVFDNVSGNNFEYTLEASKSLRQKQGDSTMTYLNKGQFYPVTLKEGSSNEGIHHPISKVRSVIMVVFAEDKSREDQLRHWKYWHSRQHTAKQRCIDIADYKESFNTISNIEEIAYNAISFTWDINDEAKVFISVNCLSTDFSSQKGVKGLPLNIQIDTYSYNNRSNKPVHRAYCQIKVFCDKGAERKIRDEERKQSKRKVSDVKVQLLPSHKRTDITVFKPFLDLDTQPVLFIPDVHFTNLQRGSHVLSLPSEELEGEGSVLKRGPFGTEDDFGVPPPAKLTRTEEPKRVLLYVRKESEEVFDALMLKTPSLKGLMEAISDKYDVPHDKIGKIFKKCKKGILVNMDDNIVKHYSNEDTFQLQIEEAGGSYKLTLTEI

Chains of the proteins cited; added tags and fusions are not shown.
UniProt P06537: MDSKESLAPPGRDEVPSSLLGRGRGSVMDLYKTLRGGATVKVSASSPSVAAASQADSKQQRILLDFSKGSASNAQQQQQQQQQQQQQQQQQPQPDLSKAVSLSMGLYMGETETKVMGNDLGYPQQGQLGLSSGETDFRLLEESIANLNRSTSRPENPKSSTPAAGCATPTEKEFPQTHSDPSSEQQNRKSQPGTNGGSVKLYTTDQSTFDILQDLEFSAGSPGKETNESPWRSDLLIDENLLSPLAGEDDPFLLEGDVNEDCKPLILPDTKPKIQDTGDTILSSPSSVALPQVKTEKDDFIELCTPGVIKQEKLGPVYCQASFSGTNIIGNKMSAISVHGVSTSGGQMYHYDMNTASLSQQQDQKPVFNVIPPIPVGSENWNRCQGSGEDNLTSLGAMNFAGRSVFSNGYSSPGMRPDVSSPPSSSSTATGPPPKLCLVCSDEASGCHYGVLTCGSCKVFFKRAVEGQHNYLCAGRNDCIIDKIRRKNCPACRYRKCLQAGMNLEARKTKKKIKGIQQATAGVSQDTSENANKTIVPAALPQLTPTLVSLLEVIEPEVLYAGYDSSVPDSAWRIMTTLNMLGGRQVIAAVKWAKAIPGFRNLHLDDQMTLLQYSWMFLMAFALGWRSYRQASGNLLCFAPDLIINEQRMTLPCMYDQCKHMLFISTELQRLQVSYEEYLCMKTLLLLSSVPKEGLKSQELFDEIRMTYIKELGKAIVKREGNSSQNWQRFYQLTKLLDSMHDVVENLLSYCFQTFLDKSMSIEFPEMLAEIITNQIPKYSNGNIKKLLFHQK
UniProt A2BH40: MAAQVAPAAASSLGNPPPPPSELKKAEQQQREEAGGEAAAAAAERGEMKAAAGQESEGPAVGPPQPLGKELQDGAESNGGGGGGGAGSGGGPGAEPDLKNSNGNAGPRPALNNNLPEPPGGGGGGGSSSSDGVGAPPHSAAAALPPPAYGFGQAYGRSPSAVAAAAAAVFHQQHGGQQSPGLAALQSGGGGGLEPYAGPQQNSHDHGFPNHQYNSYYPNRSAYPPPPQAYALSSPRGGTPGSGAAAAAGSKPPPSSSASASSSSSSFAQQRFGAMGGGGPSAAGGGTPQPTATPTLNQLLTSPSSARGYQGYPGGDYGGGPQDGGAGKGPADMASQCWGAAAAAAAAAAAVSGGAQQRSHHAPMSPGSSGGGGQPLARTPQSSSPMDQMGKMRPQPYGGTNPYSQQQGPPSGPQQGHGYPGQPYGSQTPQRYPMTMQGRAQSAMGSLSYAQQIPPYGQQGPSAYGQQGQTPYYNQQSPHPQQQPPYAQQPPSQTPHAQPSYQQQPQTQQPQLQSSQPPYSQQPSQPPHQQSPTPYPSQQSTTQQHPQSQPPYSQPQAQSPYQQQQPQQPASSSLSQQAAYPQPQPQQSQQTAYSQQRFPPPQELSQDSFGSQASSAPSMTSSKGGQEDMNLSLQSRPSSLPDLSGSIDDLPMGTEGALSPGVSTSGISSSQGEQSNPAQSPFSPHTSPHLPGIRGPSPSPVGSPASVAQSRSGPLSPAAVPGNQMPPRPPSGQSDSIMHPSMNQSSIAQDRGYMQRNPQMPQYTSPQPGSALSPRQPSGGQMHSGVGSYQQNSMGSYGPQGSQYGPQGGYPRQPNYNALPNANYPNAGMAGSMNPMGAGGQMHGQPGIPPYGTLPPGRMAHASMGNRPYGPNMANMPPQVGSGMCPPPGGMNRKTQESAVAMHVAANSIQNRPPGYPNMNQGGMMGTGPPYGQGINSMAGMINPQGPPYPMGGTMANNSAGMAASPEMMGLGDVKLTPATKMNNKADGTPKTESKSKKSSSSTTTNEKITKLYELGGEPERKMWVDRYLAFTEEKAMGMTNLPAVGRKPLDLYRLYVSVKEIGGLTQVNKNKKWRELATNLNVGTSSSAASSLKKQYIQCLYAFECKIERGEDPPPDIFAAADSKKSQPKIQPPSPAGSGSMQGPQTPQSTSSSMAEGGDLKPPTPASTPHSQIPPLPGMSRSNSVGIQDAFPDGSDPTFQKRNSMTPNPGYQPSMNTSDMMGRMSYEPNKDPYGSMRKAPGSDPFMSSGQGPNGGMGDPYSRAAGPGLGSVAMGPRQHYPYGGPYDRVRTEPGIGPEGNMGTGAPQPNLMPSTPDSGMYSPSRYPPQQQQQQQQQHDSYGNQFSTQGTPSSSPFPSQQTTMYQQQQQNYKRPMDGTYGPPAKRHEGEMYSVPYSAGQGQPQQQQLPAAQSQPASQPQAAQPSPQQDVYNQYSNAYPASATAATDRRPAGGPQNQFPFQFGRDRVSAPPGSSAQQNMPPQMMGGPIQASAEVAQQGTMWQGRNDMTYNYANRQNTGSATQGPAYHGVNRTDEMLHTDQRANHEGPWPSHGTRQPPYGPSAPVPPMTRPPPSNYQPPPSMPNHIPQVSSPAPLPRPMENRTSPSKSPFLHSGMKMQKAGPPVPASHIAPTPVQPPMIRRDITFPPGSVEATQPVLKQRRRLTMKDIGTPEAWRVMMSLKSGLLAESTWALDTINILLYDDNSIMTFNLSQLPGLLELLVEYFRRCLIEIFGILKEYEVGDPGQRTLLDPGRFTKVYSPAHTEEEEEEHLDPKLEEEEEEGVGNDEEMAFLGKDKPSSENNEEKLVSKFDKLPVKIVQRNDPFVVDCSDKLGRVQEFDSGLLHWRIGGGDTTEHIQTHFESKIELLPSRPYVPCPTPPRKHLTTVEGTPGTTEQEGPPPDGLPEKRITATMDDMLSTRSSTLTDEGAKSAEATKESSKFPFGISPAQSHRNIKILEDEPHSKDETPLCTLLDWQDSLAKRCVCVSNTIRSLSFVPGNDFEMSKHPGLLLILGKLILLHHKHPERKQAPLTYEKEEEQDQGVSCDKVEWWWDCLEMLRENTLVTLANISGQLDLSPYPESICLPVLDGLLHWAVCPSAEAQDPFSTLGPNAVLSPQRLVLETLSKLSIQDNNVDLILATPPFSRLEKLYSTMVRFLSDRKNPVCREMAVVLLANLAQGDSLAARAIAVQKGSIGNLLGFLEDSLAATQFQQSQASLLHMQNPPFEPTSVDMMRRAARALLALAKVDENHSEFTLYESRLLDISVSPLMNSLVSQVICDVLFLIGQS
UniProt Q9Z0Z7: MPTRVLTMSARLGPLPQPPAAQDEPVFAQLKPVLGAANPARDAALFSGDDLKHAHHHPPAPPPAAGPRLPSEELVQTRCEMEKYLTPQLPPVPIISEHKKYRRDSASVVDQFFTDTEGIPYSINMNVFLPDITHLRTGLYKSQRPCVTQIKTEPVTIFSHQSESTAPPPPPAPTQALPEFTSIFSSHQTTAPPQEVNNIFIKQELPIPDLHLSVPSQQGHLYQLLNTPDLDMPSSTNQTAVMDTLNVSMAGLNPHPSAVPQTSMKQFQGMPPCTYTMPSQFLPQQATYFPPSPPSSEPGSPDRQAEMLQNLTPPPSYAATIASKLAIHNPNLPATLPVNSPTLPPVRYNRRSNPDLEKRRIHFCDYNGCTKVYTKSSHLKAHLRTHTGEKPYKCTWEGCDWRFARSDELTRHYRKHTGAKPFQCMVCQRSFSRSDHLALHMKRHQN
UniProt Q03347: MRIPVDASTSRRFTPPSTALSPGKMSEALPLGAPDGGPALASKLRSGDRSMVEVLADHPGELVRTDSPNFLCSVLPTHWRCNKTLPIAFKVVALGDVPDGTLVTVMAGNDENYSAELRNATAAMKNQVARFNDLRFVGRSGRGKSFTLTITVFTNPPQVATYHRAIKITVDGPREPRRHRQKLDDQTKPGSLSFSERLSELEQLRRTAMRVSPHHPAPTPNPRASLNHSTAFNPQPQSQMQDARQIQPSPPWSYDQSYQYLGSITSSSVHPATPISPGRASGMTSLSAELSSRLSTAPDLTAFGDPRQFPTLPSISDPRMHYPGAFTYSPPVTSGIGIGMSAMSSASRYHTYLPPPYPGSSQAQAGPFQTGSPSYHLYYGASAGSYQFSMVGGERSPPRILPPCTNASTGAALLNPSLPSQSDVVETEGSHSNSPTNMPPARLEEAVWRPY
UniProt Q3TKT4: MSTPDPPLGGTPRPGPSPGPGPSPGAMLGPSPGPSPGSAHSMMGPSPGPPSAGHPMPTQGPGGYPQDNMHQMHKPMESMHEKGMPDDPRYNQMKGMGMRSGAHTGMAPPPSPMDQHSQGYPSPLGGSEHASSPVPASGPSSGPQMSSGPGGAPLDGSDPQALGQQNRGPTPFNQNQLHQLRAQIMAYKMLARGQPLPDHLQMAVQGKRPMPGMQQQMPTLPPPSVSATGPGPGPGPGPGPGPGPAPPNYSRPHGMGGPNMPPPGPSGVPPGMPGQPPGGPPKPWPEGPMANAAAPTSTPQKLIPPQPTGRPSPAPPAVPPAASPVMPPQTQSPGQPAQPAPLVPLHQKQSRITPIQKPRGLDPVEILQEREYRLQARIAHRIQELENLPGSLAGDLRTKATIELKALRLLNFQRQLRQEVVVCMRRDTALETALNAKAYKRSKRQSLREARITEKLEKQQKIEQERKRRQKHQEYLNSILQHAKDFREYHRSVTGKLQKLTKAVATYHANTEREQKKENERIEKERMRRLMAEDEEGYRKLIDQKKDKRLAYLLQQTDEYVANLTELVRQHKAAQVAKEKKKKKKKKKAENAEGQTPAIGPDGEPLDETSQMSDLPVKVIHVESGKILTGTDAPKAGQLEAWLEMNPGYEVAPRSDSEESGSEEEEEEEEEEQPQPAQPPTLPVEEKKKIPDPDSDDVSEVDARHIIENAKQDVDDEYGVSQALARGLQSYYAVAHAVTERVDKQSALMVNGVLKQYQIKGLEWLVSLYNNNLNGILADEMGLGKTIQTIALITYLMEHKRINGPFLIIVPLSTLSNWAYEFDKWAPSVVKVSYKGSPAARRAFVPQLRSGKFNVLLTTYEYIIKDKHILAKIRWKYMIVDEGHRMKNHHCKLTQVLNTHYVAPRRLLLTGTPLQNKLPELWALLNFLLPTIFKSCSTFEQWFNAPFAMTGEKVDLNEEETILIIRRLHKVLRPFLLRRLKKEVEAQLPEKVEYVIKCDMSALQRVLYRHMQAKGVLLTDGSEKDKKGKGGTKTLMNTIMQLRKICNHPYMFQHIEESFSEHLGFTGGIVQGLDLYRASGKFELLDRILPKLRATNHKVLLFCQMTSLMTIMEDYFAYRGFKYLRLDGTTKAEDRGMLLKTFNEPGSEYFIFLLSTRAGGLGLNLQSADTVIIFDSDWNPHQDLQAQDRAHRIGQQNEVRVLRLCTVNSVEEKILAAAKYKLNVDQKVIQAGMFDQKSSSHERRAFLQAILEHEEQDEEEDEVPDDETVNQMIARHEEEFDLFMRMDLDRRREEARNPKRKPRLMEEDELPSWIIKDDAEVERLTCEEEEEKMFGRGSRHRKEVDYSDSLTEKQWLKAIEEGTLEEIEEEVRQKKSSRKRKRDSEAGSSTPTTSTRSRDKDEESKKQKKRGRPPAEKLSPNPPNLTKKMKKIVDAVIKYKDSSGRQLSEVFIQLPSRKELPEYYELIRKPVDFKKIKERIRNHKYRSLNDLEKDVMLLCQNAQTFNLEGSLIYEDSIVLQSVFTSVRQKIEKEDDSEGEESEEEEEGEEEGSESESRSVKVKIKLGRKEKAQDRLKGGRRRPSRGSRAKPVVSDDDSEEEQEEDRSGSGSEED
UniProt Q99JR8: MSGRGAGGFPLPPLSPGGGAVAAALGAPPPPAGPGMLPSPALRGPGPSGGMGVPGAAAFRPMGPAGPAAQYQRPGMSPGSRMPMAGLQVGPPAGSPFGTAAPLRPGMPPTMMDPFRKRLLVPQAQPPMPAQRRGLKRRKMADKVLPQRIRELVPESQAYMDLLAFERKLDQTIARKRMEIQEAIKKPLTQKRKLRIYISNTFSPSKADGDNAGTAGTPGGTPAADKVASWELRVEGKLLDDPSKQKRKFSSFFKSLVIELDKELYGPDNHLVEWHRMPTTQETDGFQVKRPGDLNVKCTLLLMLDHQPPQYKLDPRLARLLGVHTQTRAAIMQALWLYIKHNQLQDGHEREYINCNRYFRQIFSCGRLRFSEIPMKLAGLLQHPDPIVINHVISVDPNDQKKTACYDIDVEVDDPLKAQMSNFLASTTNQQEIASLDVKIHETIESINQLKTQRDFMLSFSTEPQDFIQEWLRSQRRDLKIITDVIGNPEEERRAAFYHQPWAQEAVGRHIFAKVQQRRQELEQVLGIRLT

Biological target: glucocorticoid receptor (GR/NR3C1) (mouse (endogenous in immortalized mouse keratinocytes)) (UniProt P06537)
Assay: affinity purification with mass spectrometry; RIME: mouse keratinocytes treated with vehicle (EtOH) or 100 nM Dex for 1 h, cross-linked with 1% formaldehyde; sonicated nuclear lysates immunoprecipitated overnight with GR antibody (sc-1004) or rabbit IgG on Protein A Dynabeads; 7 washes with RIPA buffer (0.5 M LiCl); on-bead trypsin digest, timsTOF Pro; proteins also found in IgG control excluded

Row | Molecule | binding
1 | ARID1A (from UniProt A2BH40 1-2283) | binds
2 | CBP (from UniProt P45481 1-2441) | binds
3 | Krüppel-like factor (KLF)5 (from UniProt Q9Z0Z7 1-446) | binds
4 | RUNX1 (from UniProt Q03347 1-451) | binds
5 | SMARCA4 (from UniProt Q3TKT4 1-1613) | binds
6 | SMARCA5 (from UniProt Q91ZW3 1-1051) | binds
7 | SMARCD2 (from UniProt Q99JR8 1-531) | binds
8 | B1 | binds
9 | B2 | binds
10 | B3 | binds

From publication PMC11284228
